Measurements published in publication PMC8384837.
Where a chain is given by its changes, count along the chain named. The list shows a part of the results. For some assays here: At the low end of the ranking the order means little.

Experiments:
Conditions in all cases: yeast three-hybrid, YBZ-1, SC-Leu-His + 0.5 mM 3-AT, 4 days
[1] = molecular target: T1, PUM1 PUF domain R8-KQR N1122K + Y1123Q + Q1126R (UniProt Q14671)
T1 sequence: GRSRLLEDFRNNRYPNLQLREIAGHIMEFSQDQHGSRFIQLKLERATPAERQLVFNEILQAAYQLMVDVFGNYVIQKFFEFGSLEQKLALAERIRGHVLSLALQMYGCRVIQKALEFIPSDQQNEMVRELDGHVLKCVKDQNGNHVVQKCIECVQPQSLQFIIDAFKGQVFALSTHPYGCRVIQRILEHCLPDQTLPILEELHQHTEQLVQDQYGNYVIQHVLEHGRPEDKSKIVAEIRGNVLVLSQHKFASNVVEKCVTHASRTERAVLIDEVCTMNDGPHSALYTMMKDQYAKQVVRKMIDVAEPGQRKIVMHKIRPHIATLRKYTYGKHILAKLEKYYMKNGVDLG

[2] = molecular target: T2, PUM1 PUF domain R8-KRY N1122K + Y1123R + Q1126Y (UniProt Q14671)
T2 sequence: T1 sequence with Q296R, R299Y

[3] = molecular target: T3, PUM1 PUF domain R8-LYF N1122L + Q1126F (Homo sapiens) (UniProt Q14671)
T3 sequence: T1 sequence with K295L, Q296Y, R299F

[4] = molecular target: T4, PUM1 PUF domain R8-MHP N1122M + Y1123H + Q1126P (UniProt Q14671)
T4 sequence: T1 sequence with K295M, Q296H, R299P

[5] = molecular target: T5, PUM1 PUF domain R8-MYF N1122M + Q1126F (Homo sapiens) (UniProt Q14671)
T5 sequence: T1 sequence with K295M, Q296Y, R299F

[6] = molecular target: T6, PUM1 PUF domain R8-QFP N1122Q + Y1123F + Q1126P (Homo sapiens) (UniProt Q14671)
T6 sequence: T1 sequence with K295Q, Q296F, R299P

[7] = molecular target: T7, PUM1 PUF domain R8-RCK N1122R + Y1123C + Q1126K (Homo sapiens) (UniProt Q14671)
T7 sequence: T1 sequence with K295R, Q296C, R299K

[8] = molecular target: T8, PUM1 PUF domain R8-RKV N1122R + Y1123K + Q1126V (Homo sapiens) (UniProt Q14671)
T8 sequence: T1 sequence with K295R, Q296K, R299V

[9] = molecular target: T9, PUM1 PUF domain R8-RPR N1122R + Y1123P + Q1126R (Homo sapiens) (UniProt Q14671)
T9 sequence: T1 sequence with K295R, Q296P

[10] = molecular target: T10, PUM1 PUF domain R8-RSR N1122R + Y1123S + Q1126R (Homo sapiens) (UniProt Q14671)
T10 sequence: T1 sequence with K295R, Q296S

[11] = molecular target: T11, PUM1 PUF domain R1-QFR R3-THE R4-TFR S863Q + R864F + Q867R + C935T + R936H + Q939E + N971T + H972F + Q975R (Homo sapiens) (UniProt Q14671)
T11 sequence: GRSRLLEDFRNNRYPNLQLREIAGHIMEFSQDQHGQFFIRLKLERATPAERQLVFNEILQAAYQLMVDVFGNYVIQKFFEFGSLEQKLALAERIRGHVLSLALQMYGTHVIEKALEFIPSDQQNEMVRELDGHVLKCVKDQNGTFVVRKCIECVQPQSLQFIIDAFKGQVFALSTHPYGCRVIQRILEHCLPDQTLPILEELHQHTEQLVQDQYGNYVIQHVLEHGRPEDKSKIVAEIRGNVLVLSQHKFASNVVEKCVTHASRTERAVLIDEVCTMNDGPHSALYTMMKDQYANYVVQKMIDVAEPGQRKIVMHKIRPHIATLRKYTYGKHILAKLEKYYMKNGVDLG

[12] = molecular target: T12, PUM1 PUF domain R1-QFR R6-SWD R7-NPG S863Q + R864F + Q867R + N1043S + Y1044W + Q1047D + S1079N + N1080P + E1083G (Homo sapiens) (UniProt Q14671)
T12 sequence: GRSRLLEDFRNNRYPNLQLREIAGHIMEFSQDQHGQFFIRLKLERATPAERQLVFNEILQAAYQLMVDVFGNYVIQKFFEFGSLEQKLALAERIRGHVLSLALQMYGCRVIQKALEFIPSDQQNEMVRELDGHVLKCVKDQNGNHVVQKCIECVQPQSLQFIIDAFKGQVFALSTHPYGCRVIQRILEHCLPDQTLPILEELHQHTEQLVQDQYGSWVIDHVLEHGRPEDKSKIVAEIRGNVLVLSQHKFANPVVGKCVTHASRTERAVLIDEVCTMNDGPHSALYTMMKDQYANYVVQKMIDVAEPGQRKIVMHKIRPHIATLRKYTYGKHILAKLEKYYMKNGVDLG

[13] = molecular target: T13, PUM1 PUF domain R2-AKP N899A + Y900K + Q903P (Homo sapiens) (UniProt Q14671)
T13 sequence: T1 sequence with N72A, Y73K, Q76P, K295N, Q296Y, R299Q

[14] = molecular target: T14, PUM1 PUF domain R2-CGI N899C + Y900G + Q903I (UniProt Q14671)
T14 sequence: T1 sequence with N72C, Y73G, Q76I, K295N, Q296Y, R299Q

[15] = molecular target: T15, PUM1 PUF domain R2-DFE N899D + Y900F + Q903E (UniProt Q14671)
T15 sequence: T1 sequence with N72D, Y73F, Q76E, K295N, Q296Y, R299Q

[16] = molecular target: T16, PUM1 PUF domain R2-DWE N899D + Y900W + Q903E (UniProt Q14671)
T16 sequence: T1 sequence with N72D, Y73W, Q76E, K295N, Q296Y, R299Q

[17] = molecular target: T17, PUM1 PUF domain R2-KFG N899K + Y900F + Q903G (UniProt Q14671)
T17 sequence: T1 sequence with N72K, Y73F, Q76G, K295N, Q296Y, R299Q

[18] = molecular target: T18, PUM1 PUF domain R2-KLS N899K + Y900L + Q903S (UniProt Q14671)
T18 sequence: T1 sequence with N72K, Y73L, Q76S, K295N, Q296Y, R299Q

[19] = molecular target: T19, PUM1 PUF domain R2-KRA N899K + Y900R + Q903A (Homo sapiens) (UniProt Q14671)
T19 sequence: T1 sequence with N72K, Y73R, Q76A, K295N, Q296Y, R299Q

[20] = molecular target: T20, PUM1 PUF domain R2-KRG N899K + Y900R + Q903G (Homo sapiens) (UniProt Q14671)
T20 sequence: T1 sequence with N72K, Y73R, Q76G, K295N, Q296Y, R299Q

GGCUAGAACUAGUGGAUCCCCCGGCGCCCGGCGGCUCGAGCCCGGGUAAGUGUAAAUAGUCUGCAUGCCGCCGGGCGCCAUGCCUGCAGGUCGACUCUAGAAAACAUG
binding signal (log2 enrichment (interaction score)) [1]: < -6.78
binding signal (log2 enrichment (interaction score)) [2]: < -5.98
binding signal (log2 enrichment (interaction score)) [3]: 0.65
binding signal (log2 enrichment (interaction score)) [4]: < -6.11
binding signal (log2 enrichment (interaction score)) [5]: -0.92
binding signal (log2 enrichment (interaction score)) [6]: -2.14
binding signal (log2 enrichment (interaction score)) [7]: 0.07
binding signal (log2 enrichment (interaction score)) [8]: -1.53
binding signal (log2 enrichment (interaction score)) [9]: -0.06
binding signal (log2 enrichment (interaction score)) [10]: 0.07

GGCUAGAACUAGUGGAUCCCCCGGCGCCCGGCGGCUCGAGCCCGGGUAAGUGUACGUCGUCUGCAUGCCGCCGGGCGCCAUGCCUGCAGGUCGACUCUAGAAAACAUG
binding signal (log2 enrichment (interaction score)) [11]: 1.57

GGCUAGAACUAGUGGAUCCCCCGGCGCCCGGCGGCUCGAGCCCGGGUAAGUUGAAAUCGUCUGCAUGCCGCCGGGCGCCAUGCCUGCAGGUCGACUCUAGAAAACAUG
binding signal (log2 enrichment (interaction score)) [12]: -4.7

GGCUAGAACUAGUGGAUCCCCCGGCGCCCGGCGGCUCGAGCCCGGGUAAGUGUAAAAAGUCUGCAUGCCGCCGGGCGCCAUGCCUGCAGGUCGACUCUAGAAAACAUG
binding signal (log2 enrichment (interaction score)) [13]: -3.55
binding signal (log2 enrichment (interaction score)) [14]: < -5.99
binding signal (log2 enrichment (interaction score)) [15]: < -8.46
binding signal (log2 enrichment (interaction score)) [16]: < -8.83
binding signal (log2 enrichment (interaction score)) [17]: < -6.39
binding signal (log2 enrichment (interaction score)) [18]: < -8.3
binding signal (log2 enrichment (interaction score)) [19]: -2.18
binding signal (log2 enrichment (interaction score)) [20]: -3.03
